According to article PMC6892922:
Substitutions are numbered along the chain they refer to. No constants are given. Whether binding was seen depends on the method and setting. Some binding calls cover weakened binding; strength is not graded here. Values belong to the binder of their own block, whether it stands above or below them.

What was measured:
[1] = target: T1, Ehg1-Cub-LV F19A (S. cerevisiae) (UniProt Q06537); assay: two-hybrid; split-ubiquitin membrane yeast two-hybrid in strain NMY51; Ehg1 fused to Cub-LexA-VP16 as bait, permease fused to NubG (I3G) as prey; growth for 24 h in SC medium lacking adenine and histidine (ADE2 and HIS3 reporters)
T1 sequence: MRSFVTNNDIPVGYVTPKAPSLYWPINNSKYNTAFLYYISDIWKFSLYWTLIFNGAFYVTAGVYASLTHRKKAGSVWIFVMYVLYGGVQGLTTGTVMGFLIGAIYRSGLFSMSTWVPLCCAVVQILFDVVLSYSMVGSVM

[2] = target: T2, Ehg1-Cub-LV P17A-P20A (S. cerevisiae) (UniProt Q06537); assay: as above
T2 sequence: T1 sequence with P17A, A19F, P20A

binding [1]: binds | binding [2]: binds
B1: NubG-Hip1 (protein, UniProt P06775 1-603)
chain: MPRNPLKKEYWADVVDGFKPATSPAFENEKESTTFVTELTSKTDSAFPLSSKDSPGINQTTNDITSSDRFRRNEDTEQEDINNTNLSKDLSVRHLLTLAVGGAIGTGLYVNTGAALSTGGPASLVIDWVIISTCLFTVINSLGELSAAFPVVGGFNVYSMRFIEPSFAFAVNLNYLAQWLVLLPLELVAASITIKYWNDKINSDAWVAIFYATIALANMLDVKSFGETEFVLSMIKILSIIGFTILGIVLSCGGGPHGGYIGGKYWHDPGAFVGHSSGTQFKGLCSVFVTAAFSYSGIEMTAVSAAESKNPRETIPKAAKRTFWLITASYVTILTLIGCLVPSNDPRLLNGSSSVDAASSPLVIAIENGGIKGLPSLMNAIILIAVVSVANSAVYACSRCMVAMAHIGNLPKFLNRVDKRGRPMNAILLTLFFGLLSFVAASDKQAEVFTWLSALSGLSTIFCWMAINLSHIRFRQAMKVQERSLDELPFISQTGVKGSWYGFIVLFLVLIASFWTSLFPLGGSGASAESFFEGYLSFPILIVCYVGHKLYTRNWTLMVKLEDMDLDTGRKQVDLTLRREEMRIERETLAKRSFVTRFLHFWC

binding [1]: binds | binding [2]: no binding
B2: NubG-Bap2 (protein, UniProt P38084 1-609)
chain: MLSSEDFGSSGKKETSPDSISIRSFSAGNNFQSSSSEKTYSKQKSGSDKLIHRFADSFKRAEGSTTRTKQINENTSDLEDGVESITSDSKLKKSMKSRHVVMMSLGTGIGTGLLVANAKGLHYGGPAALIIGYILVSFVTYFMIQAAGEMAVTYPTLPANFNAYSSIFISKSFGFATVWLYCFQWLTVLPLELITASMTIQFWNDKINPDIYILIFYVFLVFIHFFGVKAYGETEFIFNCCKILMIAGFIILSIVINCGGAGNDGYIGATYWHNPGAFAGDTSIGRFKNVCYILVTAYFSFGGMELFALSVQEQSNPRKSTPVAAKRSIYRIVVIYLLTMILIGFNVPYNDDQLMGAGGSATHASPYVLAASIHGVKIVPHIINAVILISVVSVANSSLYAGPRLICSLAQQGYAPKFLDYVDREGRPLRALIVCCVFGVIAFVAASSKEEIVFTWLAAIAGLSELFTWTSIMLSHLRFRQAMKVQGRSLDELGYKATTGIWGSIYGVFFNILVFVAQFWVALAPLGNGGKCDAESFFQNYLAFPIWLAFYFGYMVYNRDFTLLNPLDKIDLDFHRRIYDPELMRQEDEENKEKLRNMSLMRKAYHFWC
